In article PMC11754618:
Results are given in words; binding and its absence hold for the method and conditions named. Some results given as binding are weak or reduced against the parent protein; the word gives no strength. For some assays here: Where a sequence is shown, tags or fusion partners need not be part of it.

The chains behind the UniProt entries cited, without tags or fusion partners. Residues count along the entry.
UniProt P45974: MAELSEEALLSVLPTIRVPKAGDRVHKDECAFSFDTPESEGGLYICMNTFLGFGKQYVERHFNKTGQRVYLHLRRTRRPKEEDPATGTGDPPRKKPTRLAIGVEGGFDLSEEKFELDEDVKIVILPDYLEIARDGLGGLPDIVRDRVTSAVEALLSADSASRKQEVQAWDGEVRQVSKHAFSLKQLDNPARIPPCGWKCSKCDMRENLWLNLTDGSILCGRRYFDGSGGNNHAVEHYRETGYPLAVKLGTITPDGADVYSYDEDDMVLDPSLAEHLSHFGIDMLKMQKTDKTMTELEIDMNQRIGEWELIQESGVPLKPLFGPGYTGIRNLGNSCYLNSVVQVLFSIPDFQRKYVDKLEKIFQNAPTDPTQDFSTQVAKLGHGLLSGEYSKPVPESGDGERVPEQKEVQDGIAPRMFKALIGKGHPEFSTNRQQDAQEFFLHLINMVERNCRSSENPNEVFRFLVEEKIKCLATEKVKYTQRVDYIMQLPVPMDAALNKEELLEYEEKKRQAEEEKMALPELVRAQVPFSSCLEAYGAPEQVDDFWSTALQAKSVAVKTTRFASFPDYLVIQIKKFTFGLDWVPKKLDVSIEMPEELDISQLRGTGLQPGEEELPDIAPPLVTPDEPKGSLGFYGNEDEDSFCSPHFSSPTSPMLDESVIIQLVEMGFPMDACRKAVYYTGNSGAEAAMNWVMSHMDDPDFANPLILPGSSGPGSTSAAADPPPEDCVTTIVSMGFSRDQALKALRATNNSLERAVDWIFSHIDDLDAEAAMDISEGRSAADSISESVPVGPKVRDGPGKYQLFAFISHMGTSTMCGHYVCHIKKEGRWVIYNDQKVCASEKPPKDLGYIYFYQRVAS
UniProt Q64339, residues 1-155: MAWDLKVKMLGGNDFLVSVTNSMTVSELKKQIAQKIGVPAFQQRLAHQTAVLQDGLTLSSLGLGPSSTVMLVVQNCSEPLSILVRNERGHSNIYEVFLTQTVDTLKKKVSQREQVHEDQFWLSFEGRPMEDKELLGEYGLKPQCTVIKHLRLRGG
UniProt P05161, residues 1-157: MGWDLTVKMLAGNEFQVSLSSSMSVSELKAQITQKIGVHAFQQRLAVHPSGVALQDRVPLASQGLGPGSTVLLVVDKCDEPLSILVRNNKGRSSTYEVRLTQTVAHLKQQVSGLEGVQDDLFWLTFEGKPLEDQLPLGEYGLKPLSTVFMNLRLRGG

Tests used:
[1] = target: T1, His6-Hs.USP18 (16-372) (human) (UniProt Q9UMW8); experiment: SPR; BIAcore 3000; mouse and human USP18 immobilised via the N-terminal His6 tag on an NTA chip; 25 °C; 50 mM HEPES, 150 mM NaCl, 0.05 mM EDTA, 0.5 mM DTT, 0.01% P20, pH 7.5; 20 μL/min; Langmuir 1:1 model with drift; both purified
T1 sequence: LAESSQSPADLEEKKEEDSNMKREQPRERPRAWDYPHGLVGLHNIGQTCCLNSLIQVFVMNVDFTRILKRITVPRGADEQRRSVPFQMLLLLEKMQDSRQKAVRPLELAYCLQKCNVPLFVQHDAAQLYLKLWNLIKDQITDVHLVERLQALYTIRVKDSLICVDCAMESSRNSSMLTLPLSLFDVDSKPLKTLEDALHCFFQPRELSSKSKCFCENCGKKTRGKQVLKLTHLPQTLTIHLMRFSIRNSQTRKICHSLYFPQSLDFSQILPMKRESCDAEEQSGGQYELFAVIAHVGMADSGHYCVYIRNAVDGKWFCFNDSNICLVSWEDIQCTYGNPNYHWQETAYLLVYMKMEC

[2] = target: USP5 (recombinant) (UniProt P45974); experiment: covalent labelling by an activity-based probe (SDS-PAGE); labelling of USP5 by hISG15FL- and mISG15CTD-based probes (Supplementary Fig. 1B); conditions not shown

binding [1] | binding [2] | Substance
binds |  | mouse ISG15 (from UniProt Q64339 1-155)
 | binds | hISG15FL-based probe (from UniProt P05161 1-157)
